According to US20160201132A1, “GENE EXPRESSION BIOMARKERS OF LAQUINIMOD RESPONSIVENESS” (Teva Pharmaceutical Industries Ltd., priority 2013, published 2016):
Where “and” joins values, the source holds several entries; their conditions need not be identical. Equal values may be shown once. This continues a long series; more values of the same kind are listed elsewhere.

Test system: PBMC of RRMS patients
Test: Gene expression microarray analysis (HG-U133A-2) of PBMC from RRMS patients treated with LAQ, ancillary study to ALLEGRO
Format: in vivo, human
Source text: The goal of this ancillary study was to characterize gene expression changes and corresponding biological mechanisms induced in PBMC of RRMS patients by LAQ treatment. According to ALLEGRO clinical trial inclusion criteria, 25 patients were randomly assigned to receive LAQ (n=13, age 38.8±2.3 years, female/male ratio: 8/5) or placebo (n=12, age 37.2±3.4 years, female/male ratio: 8/4).
Peripheral blood samples were obtained from RRMS patients at baseline before start of LAQ treatment or placebo, after 0, 1, 6 and 24 month of treatment (visit 0, 1, 6 and 7 according to ALLEGRO clinical trial protocol correspondently) for gene microarray analysis.
Briefly, 1) Peripheral blood mononuclear cells (PBMC) were obtained from RRMS patients that participated in ALLEGRO and were treated daily with 0.6 mg LAQ or placebo. PBMC were subjected for gene expression analysis (HU-133A-2-Affymatrix arrays) at baseline and at 1 and 6 months of LAQ treatment; 2) Data was analyzed by Partek Genomics Solution software. Most informative genes (MIGs) were defined as those that differentiated between groups with p<0.01. Gene functional annotation, enrichment and pathway analysis were performed by Ingenuity software. For each time point, genes that changed in placebo group were excluded from further analysis; and 3) Verification of LAQ related mechanism was performed by Western blot.
PBMC were extracted from 15 ml peripheral blood, separated by Ficoll-Hypaque gradient. Total RNA was extracted using both Trizol (Invitrogen, USA) and Phase-Lock-Gel columns (Eppendorf, Germany) including a DNase digestion step. RNA integrity was assessed by RNA Experion automated electrophoresis system (Bio-Rad Laboratories, Hercules, Calif.).
Probe synthesis using 3 μg total RNA, hybridization, detection, and scanning was performed according to the standard Affymetrix, Inc. USA protocols; cDNA was synthesized using the Two-Cycle cDNA Synthesis Kit (Affymetrix, Inc., USA), and in-vitro transcription performed with the GeneChip IVT Labeling Kit (Affymetrix, Inc., USA). The biotin-labeled IVT-RNA was hybridized to HG-U133A-2 arrays containing 18,400 gene transcripts, each corresponding to 14,500 well-annotated human genes, washed in a GeneChip Fluidics Station 450 (Hewlett Packard, USA, GeneArray-™ scanner G2500A) and scanned according to the manufacturer's protocol (Affymetrix, Inc., USA).
Data analysis was performed on Partek Genomics Solution software (www.partek.com; Partek Incorporated, St. Louis, Mo.). Expression values were computed from raw CEL files by applying the Robust Multi-Chip Average (RMA) background correction algorithm. RMA correction included: 1) values background correction; 2) quintile normalization; 3) log 2 transformation; and 4) median polish summarization. The ANOVA, Repeated Measures and correlation analysis implicated in Partek software ware applied to evaluate LAQ effects. Most informative genes MIGs were defined as those that differentiated between experimental groups with p<0.01. All p-values were calculated for False Discovery Rate (FDR) multiple test correction at p=0.05.
Additionally, significance of individual genes was tested by parametric T-test and non parametric Mann-Whitney test using Bootstrapping approach based on repeated permutations of the data with 5% FDR for multiple testing.
Gene functional annotation, enrichment, and pathway analyses to identify the leading biological pathways that operated under LAQ treatment were performed by Ingenuity Pathways Analysis software (www.ingenuity.com).
ANOVA analysis was used to compare PBMC gene expression after 1, 6 or 24 month of LAQ treatment with baseline gene expression.
For each time point inventors performed analysis source of variation in dataset. (FIG. 1). Age, gender and batch effects were considered as confounders regarding LAQ or Placebo related changes. For each time point genes associated with Placebo effect were evaluated and excluded from further analysis. […]

CCN(C(=O)c1c(O)c2c(Cl)cccc2n(C)c1=O)c1ccccc1 [LAQ, 5-chloro-N-ethyl-4-hydroxy-1-methyl-2-oxo-N-phenyl-1,2-dihydroquinoline-3-carboxamide]
Fold-Change (4.0 vs. 0.0) (gene SI, six months of treatment): −1.1522 | Fold-Change (4.0 vs. 0.0) (gene SL1T1): −1.185 | Fold-Change (4.0 vs. 0.0) (gene SLC6A8, after six months of LAQ): −1.241 | Fold-Change (4.0 vs. 0.0) (gene SLC6A15, six months of treatment): −1.1479 | Fold-Change (4.0 vs. 0.0) (gene SLC7A1, after six months of LAQ): −1.29 | Fold-Change (4.0 vs. 0.0) (gene SLC8A2): −1.177 | Fold-Change (4.0 vs. 0.0) (gene SLC9A3): −1.187 | Fold-Change (4.0 vs. 0.0) (gene SLC9A5, six months of treatment): −1.16 | Fold-Change (4.0 vs. 0.0) (gene SLC10A2, after six months of LAQ): −1.134 | Fold-Change (4.0 vs. 0.0) (gene SLC11A2, after six months of LAQ): −1.27 | Fold-Change (4.0 vs. 0.0) (gene SLC13A2, after six months of LAQ): −1.14 | Fold-Change (4.0 vs. 0.0) (gene SLC17A1, after six months of LAQ): −1.141 | Fold-Change (4.0 vs. 0.0) (gene SLC18A3, PBMC, six months of LAQ treatment): −1.111 | Fold-Change (4.0 vs. 0.0) (gene SLC19A1, after six months of LAQ): −1.268 | Fold-Change (4.0 vs. 0.0) (gene SLC22A6, after six months of LAQ): −1.14 | Fold-Change (4.0 vs. 0.0) (gene SLC27A6, PBMC, six months of LAQ treatment): −1.093 | Fold-Change (4.0 vs. 0.0) (gene SLC37A1, PBMC, six months of LAQ treatment): −1.115 | Fold-Change (4.0 vs. 0.0) (gene SLC45A2): −1.188 | Fold-Change (4.0 vs. 0.0) (gene SLCO1A2, after six months of LAQ): −1.14 | Fold-Change (4.0 vs. 0.0) (gene SLCO1B3, PBMC, six months of LAQ treatment): −1.102 | Fold-Change (4.0 vs. 0.0) (gene SLCO2A1, PBMC, six months of LAQ treatment): −1.121 | Fold-Change (4.0 vs. 0.0) (gene SMAD3, after six months of LAQ): −1.225 | Fold-Change (4.0 vs. 0.0) (gene SMAD4, after six months of LAQ): −1.2306 | Fold-Change (4.0 vs. 0.0) (gene SMAD6, after six months of LAQ): −1.138 | Fold-Change (4.0 vs. 0.0) (gene SMAD9, after six months of LAQ): −1.1293 | Fold-Change (4.0 vs. 0.0) (gene SMARCA2, six months of treatment): −1.16 | Fold-Change (4.0 vs. 0.0) (gene SMOX, after six months of LAQ): −1.34 | Fold-Change (4.0 vs. 0.0) (gene SMR3A /// SMR3B, six months of treatment): −1.148 | Fold-Change (4.0 vs. 0.0) (gene SMR3A, after six months of LAQ): −1.138 | Fold-Change (4.0 vs. 0.0) (gene SNAI2, six months of treatment): −1.157 | Fold-Change (4.0 vs. 0.0) (gene SNTB2, six months of treatment): −1.144 | Fold-Change (4.0 vs. 0.0) (gene SNX1, six months of treatment): −1.148 | Fold-Change (4.0 vs. 0.0) (gene SORBS1): −1.191 | Fold-Change (4.0 vs. 0.0) (gene SOSTDC1, after six months of LAQ): −1.134 | Fold-Change (4.0 vs. 0.0) (gene SOX11, PBMC, six months of LAQ treatment): −1.109 | Fold-Change (4.0 vs. 0.0) (gene SOX14, after six months of LAQ): −1.134 | Fold-Change (4.0 vs. 0.0) (gene SP2, six months of treatment): −1.159 | Fold-Change (4.0 vs. 0.0) (gene SPAG11A, after six months of LAQ): −1.142 | Fold-Change (4.0 vs. 0.0) (gene SPAG11B, after six months of LAQ): −1.1317 | Fold-Change (4.0 vs. 0.0) (gene SPANXB1 /// SPANXB2 /// SPANXF1, six months of treatment): −1.16 | Fold-Change (4.0 vs. 0.0) (gene SPDEF, after six months of LAQ): −1.138 | Fold-Change (4.0 vs. 0.0) (gene SPINK5): −1.189 | Fold-Change (4.0 vs. 0.0) (gene SPINLW1, after six months of LAQ): −1.239 | Fold-Change (4.0 vs. 0.0) (gene SPP2, six months of treatment): −1.16 | Fold-Change (4.0 vs. 0.0) (gene SPRR1A, after six months of LAQ): −1.133 | Fold-Change (4.0 vs. 0.0) (gene SPRY1, after six months of LAQ): −1.31 | Fold-Change (4.0 vs. 0.0) (gene SQSTM1, six months of treatment): −1.146 | Fold-Change (4.0 vs. 0.0) (gene SRCAP, six months of treatment): −1.159 | Fold-Change (4.0 vs. 0.0) (gene SRPK1, after six months of LAQ): −1.247 | Fold-Change (4.0 vs. 0.0) (gene SRPX2, after six months of LAQ): −1.229 | Fold-Change (4.0 vs. 0.0) (gene SSX3): −1.189 | Fold-Change (4.0 vs. 0.0) (gene SSX3, after six months of LAQ): −1.137 | Fold-Change (4.0 vs. 0.0) (gene SSX4 /// SSX4B, after six months of LAQ): −1.132 | Fold-Change (4.0 vs. 0.0) (gene ST6GALNAC5, PBMC, six months of LAQ treatment): −1.119 | Fold-Change (4.0 vs. 0.0) (gene STAB1, PBMC, six months of LAQ treatment): 1.462 and 1.522 | Fold-Change (4.0 vs. 0.0) (gene STARD8, after six months of LAQ): −1.284 | Fold-Change (4.0 vs. 0.0) (gene STC1, after six months of LAQ): −1.267 | Fold-Change (4.0 vs. 0.0) (gene STC1, six months of treatment): −1.159 | Fold-Change (4.0 vs. 0.0) (gene STS, PBMC, six months of LAQ treatment): −1.122 | Fold-Change (4.0 vs. 0.0) (gene SULT1C2, after six months of LAQ): −1.137 | Fold-Change (4.0 vs. 0.0) (gene SULT2A1, PBMC, six months of LAQ treatment): −1.098 | Fold-Change (4.0 vs. 0.0) (gene SYDE1, six months of treatment): −1.159 | Fold-Change (4.0 vs. 0.0) (gene SYN1, after six months of LAQ): −1.237 | Fold-Change (4.0 vs. 0.0) (gene SYNPO2L, PBMC, six months of LAQ treatment): −1.0912 | Fold-Change (4.0 vs. 0.0) (gene SYT1, six months of treatment): −1.151 | Fold-Change (4.0 vs. 0.0) (gene SYT5, after six months of LAQ): −1.1399 | Fold-Change (4.0 vs. 0.0) (gene TAAR5, after six months of LAQ): −1.229 | Fold-Change (4.0 vs. 0.0) (gene TACR3, six months of treatment): −1.161 | Fold-Change (4.0 vs. 0.0) (gene TACSTD2, six months of treatment): −1.147 | Fold-Change (4.0 vs. 0.0) (gene TAF1): −1.1905 | Fold-Change (4.0 vs. 0.0) (gene TAF4): −1.188 | Fold-Change (4.0 vs. 0.0) (gene TAL1, after six months of LAQ): −1.293 | Fold-Change (4.0 vs. 0.0) (gene TAOK2, six months of treatment): −1.145 | Fold-Change (4.0 vs. 0.0) (gene TAS2R9, after six months of LAQ): −1.134 | Fold-Change (4.0 vs. 0.0) (gene TBX2, six months of treatment): −1.145 | Fold-Change (4.0 vs. 0.0) (gene TBX10): −1.19 | Fold-Change (4.0 vs. 0.0) (gene TCEB3B, after six months of LAQ): −1.13 | Fold-Change (4.0 vs. 0.0) (gene TCF20, after six months of LAQ): −1.2525 | Fold-Change (4.0 vs. 0.0) (gene TCL6, after six months of LAQ): −1.127 | Fold-Change (4.0 vs. 0.0) (gene TEAD4, PBMC, six months of LAQ treatment): −1.111 | Fold-Change (4.0 vs. 0.0) (gene TEF, after six months of LAQ): −1.135 | Fold-Change (4.0 vs. 0.0) (gene TEX11, after six months of LAQ): −1.124
